Source: PubChem BioAssay (NCATS)
The shares of active, inactive and inconclusive entries below differ from those in the screen. For some assays here: Where the call is inconclusive, the potency comes from a doubtful curve fit. The source made the active and inactive calls. The call rests on the fitted dose curve; in most records, active means well fitted cell-killing curve with a large enough effect; inconclusive means small, poorly fitted or top-dose-only effect, or effect the other way; inactive means no such curve, though single readings can be large or run the other way.

Tests used:
[1] = Quantitative High-Throughput drug screen in 47 multiple myeloma cell lines against the NCATS MIPE library collection: MOLP8_DSMZ cell viability assay (AID 1918977); further: nearly all actives have a fitted effect of over 45% in size; further: potency means the concentration at half of the fitted maximal effect;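 on viability (% of control): 100% = DMSO-only wells and 0% = media-only wells without cells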
Procedure, shortened: (§1)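 Readout: median RLU from CellTiter-Glo after 5 min at room temperature. Preceding step was 48 h drug treatment of 500 cells/well at 37 °C, 5% CO2, with DMSO-only and media-only control wells.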

[2] = Quantitative High-Throughput drug screen in 47 multiple myeloma cell lines against the NCATS MIPE library collection: MM1R_ATCC cell viability assay (AID 1918981); further: nearly all actives have a fitted effect of over 35% in size; further: potency means the concentration at half of the fitted maximal effect
Procedure, shortened: as §1

[3] = Quantitative High-Throughput drug screen in 47 multiple myeloma cell lines against the NCATS MIPE library collection: LP1_DSMZ cell viability assay (AID 1918982); further: nearly all actives have a fitted effect of over 35% in size; further: potency means the concentration at half of the fitted maximal effect
Procedure, shortened: as §1

[4] = Quantitative High-Throughput drug screen in 47 multiple myeloma cell lines against the NCATS MIPE library collection: KMS28PE_JCRB cell viability assay (AID 1918983); further: nearly all actives have a fitted effect of over 35% in size; further: potency means the concentration at half of the fitted maximal effect
Procedure, shortened: as §1

[5] = Quantitative High-Throughput drug screen in 47 multiple myeloma cell lines against the NCATS MIPE library collection: L363_DSMZ cell viability assay (AID 1918984); conditions: L363 myeloma viability, CellTiter-Glo ATP luminescence, 48 h; viability (% of control): at 45.8 µM (top of the series); further: nearly all actives have a fitted effect of over 40% in size; further: potency means the concentration at half of the fitted maximal effect
Procedure, shortened: as §1

[6] = Quantitative High-Throughput drug screen in 47 multiple myeloma cell lines against the NCATS MIPE library collection: KMS34_JCRB cell viability assay (AID 1918985); conditions: KMS34 myeloma viability, CellTiter-Glo ATP luminescence, 48 h; viability, percent of control: at 45.8 µM; further: nearly all actives have a fitted effect of over 40% in size; further: potency means the concentration at half of the fitted maximal effect;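 on viability, percent of control: 100% = DMSO-only wells and 0% = media-only wells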
Procedure, shortened: as §1

[7] = Quantitative High-Throughput drug screen in 47 multiple myeloma cell lines against the NCATS MIPE library collection: OCIMY7_PLB cell viability assay (AID 1918987); conditions: OCI-MY7 myeloma viability, CellTiter-Glo ATP, 48 h; viability (% of DMSO): at 45.8 µM unless noted; further: nearly all actives have a fitted effect of over 65% in size; further: potency means the concentration at half of the fitted maximal effect
Procedure, shortened: as §1

[8] = Quantitative High-Throughput drug screen in 47 multiple myeloma cell lines against the NCATS MIPE library collection: OCIMY5_PLB cell viability assay (AID 1918988); conditions: OCI-MY5 myeloma viability, ATP luminescence, 48 h; viability, % of control: at 45.8 µM; further: nearly all actives have a fitted effect of over 65% in size; further: potency means the concentration at half of the fitted maximal effect;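 on viability, % of control: 100% = DMSO-treated wells and 0% = wells with media alone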
Procedure, shortened: as §1

[9] = Quantitative High-Throughput drug screen in 47 multiple myeloma cell lines against the NCATS MIPE library collection: SKMM1_PLB cell viability assay (AID 1919863); conditions: SKMM1 myeloma viability, CellTiter-Glo ATP, 48 h; viability: stronger effect = lower value; further: nearly all actives have a fitted effect of over 35% in size; further: potency means the concentration at half of the fitted maximal effect
Procedure, shortened: as §1

[10] = Quantitative High-Throughput drug screen in 47 multiple myeloma cell lines against the NCATS MIPE library collection: XG6_PLB cell viability assay (AID 1919865); conditions: XG6 myeloma viability, CellTiter-Glo ATP luminescence, 48 h; viability (% of control): at 45.8 µM; further: nearly all actives have a fitted effect of over 40% in size; further: potency means the concentration at half of the fitted maximal effect;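 on viability (% of control): 100% = DMSO-only wells and 0% = media-only wells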
Procedure, shortened: as §1

[11] = Quantitative High-Throughput drug screen in 47 multiple myeloma cell lines against the NCATS MIPE library collection: XG1_PLB cell viability assay (AID 1919866); further: nearly all actives have a fitted effect of over 35% in size; further: potency means the concentration at half of the fitted maximal effect
Procedure, shortened: as §1

[12] = Quantitative High-Throughput drug screen in 47 multiple myeloma cell lines against the NCATS MIPE library collection: VP6_DJ cell viability assay (AID 1919867); conditions: ATP luminescence, 48 h; viability (% of DMSO): at 45.8 µM; further: nearly all actives have a fitted effect of over 40% in size; further: potency means the concentration at half of the fitted maximal effect;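 on viability (% of DMSO): 100% = DMSO-only wells and 0% = wells with media alone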
Procedure, shortened: as §1

[13] = Quantitative High-Throughput drug screen in 47 multiple myeloma cell lines against the NCATS MIPE library collection: UTMC2_PLB cell viability assay (AID 1919868); conditions: CellTiter-Glo ATP luminescence, 48 h; viability (% of DMSO control): at 45.8 µM;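 further: 100% = DMSO-only wells and 0% = media-only wells without cells; nearly all actives have a fitted effect of over 55% in size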
Procedure, shortened: as §1

[14] = Quantitative High-Throughput drug screen in 47 multiple myeloma cell lines against the NCATS MIPE library collection: PE2_PLB cell viability assay (AID 1919869); conditions: PE2_PLB myeloma cells viability, ATP luminescence, 48 h; viability (% of control): at 45.8 µM; further: nearly all actives have a fitted effect of over 35% in size; further: potency means the concentration at half of the fitted maximal effect;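 on viability (% of control): 100% = DMSO-only wells and 0% = cell-free media-only wells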
Procedure, shortened: as §1

[15] = Quantitative High-Throughput drug screen in 47 multiple myeloma cell lines against the NCATS MIPE library collection: PCM6_Riken cell viability assay (AID 1919870); conditions: CellTiter-Glo ATP, 48 h; viability (% of control): at 45.8 µM;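 further: 100% = DMSO-only wells and 0% = media-only wells; nearly all actives have a fitted effect of over 30% in size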
Procedure, shortened: as §1

[16] = Quantitative High-Throughput drug screen in 47 multiple myeloma cell lines against the NCATS MIPE library collection: MM1S_ATCC cell viability assay (AID 1918980); further: nearly all actives have a fitted effect of over 45% in size; further: potency means the concentration at half of the fitted maximal effect;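 on viability (% of control): 100% = wells with DMSO only and 0% = wells with media only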
Procedure, shortened: as §1

[17] = Quantitative High-Throughput drug screen in 47 multiple myeloma cell lines against the NCATS MIPE library collection: U266_ATCC cell viability assay (AID 1919864); further: nearly all actives have a fitted effect of over 35% in size; further: potency means the concentration at half of the fitted maximal effect;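 on viability (% of DMSO control): 0% = media-only wells without cells and 100% = DMSO-only wells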
Procedure, shortened: as §1

Row | Compound | Potency [1] | Potency [2] | Potency [3] | Potency [4] | Potency [5] | Potency [6] | Potency [7] | Potency [8] | Potency [9] | Potency [10] | Potency [11] | Potency [12] | Potency [13] | Potency [14] | Potency [15] | Potency [16] | viability [9] | Potency [17]
1 | NC1=N[C@H]2[C@H](CS[C@H]2CCCCC(=O)O)N1 | inactive | inconclusive: 0.0005 µM [rising, full curve, poor fit] | inactive | inconclusive: 0.0057 µM [rising, full curve, poor fit] | inactive | inactive | inconclusive: 0.0072 µM [rising, full curve, poor fit] | inactive | inconclusive: 0.0011 µM | inactive | inactive | inactive | inactive | inactive | inactive | – | – | –
2 | COc1ccc(-c2oc3c(CC=C(C)C)c(O)cc(O)c3c(=O)c2O)cc1 | inconclusive: 18.7 µM [cytotoxic, partial curve, poor fit] | – | inconclusive: 5.26 µM [cytotoxic, partial curve, poor fit] | inconclusive: 33.2 µM [cytotoxic, single point] | – | inconclusive: 14.8 µM [cytotoxic, partial curve] | – | – | – | – | inconclusive: 5.26 µM [cytotoxic, full curve] | active: 5.26 µM | – | – | – | inconclusive: 20.9 µM [cytotoxic, partial curve, poor fit] | – | –
3 | C[C@H](CCC(=O)O)[C@H]1CCC2C3C[C@H](O)[C@@H]4C[C@H](O)CC[C@]4(C)C3CC[C@@]21C (stereo partly specified) | inconclusive: 16.6 µM [cytotoxic, partial curve, poor fit] | inactive | inactive | inactive | – | – | inconclusive: 0.264 µM [cytotoxic, partial curve, poor fit] | inactive | – | inconclusive: 1.18 µM [cytotoxic, full curve, poor fit] | active: 18.7 µM | inconclusive: 16.6 µM [cytotoxic, partial curve, poor fit] | – | inactive | – | inactive | inactive: 96.1% | inactive
4 | Cc1cc(NC(=O)Nc2ccc(N(C)C)cc2)c2cc(F)cc(F)c2n1 | active: 23.5 µM | inconclusive: 37.2 µM [cytotoxic, single point] | inconclusive: 14.8 µM [cytotoxic, partial curve, poor fit] | – | – | – | inconclusive: 11.8 µM [cytotoxic, full curve, poor fit] | inconclusive: 20.9 µM [cytotoxic, partial curve, poor fit] | inconclusive: 26.4 µM [cytotoxic, single point] | inactive | – | inconclusive: 33.2 µM [rising, single point] | inactive | – | inactive | active: 16.6 µM | – | inactive
5 | COc1ccc(-n2nc(C(N)=O)c3c2C(=O)N(c2ccc(N4CCCCC4=O)cc2)CC3)cc1 | inconclusive: 13.2 µM [rising, partial curve, poor fit] | – | inconclusive: 18.7 µM [rising, single point] | inconclusive: 0.118 µM [rising, partial curve, poor fit] | inactive | inactive | inactive | inactive | inconclusive: 0.0042 µM [rising, full curve, poor fit] | inactive | inactive | inconclusive: 29.6 µM [cytotoxic, single point] | inactive | inactive | inactive | – | – | inconclusive: 0.0833 µM [rising, full curve, poor fit]
6 | O=C(O)c1ccc(Nc2ncc3c(n2)-c2ccc(Cl)cc2C(c2c(F)cccc2F)=NC3)cc1 | inconclusive: 14.8 µM [cytotoxic, partial curve, poor fit] | – | inconclusive: 0.0235 µM [cytotoxic, full curve, poor fit] | inconclusive: 0.662 µM [cytotoxic, full curve, poor fit] | inconclusive: 37.2 µM [cytotoxic, single point] | inconclusive: 6.62 µM [cytotoxic, partial curve, poor fit] | active: 0.209 µM | – | inconclusive: 0.372 µM [cytotoxic, full curve, poor fit] | – | – | – | – | inconclusive: 20.9 µM [cytotoxic, partial curve, poor fit] | – | active: 18.7 µM | – | –

Some of the entries above, set out differently:
Row	Compound	Potency [1]	Potency [2]	Potency [3]	Potency [4]	Potency [5]	Potency [6]	Potency [7]	Potency [8]	Potency [9]	Potency [10]	Potency [11]	Potency [12]	Potency [13]	Potency [14]	Potency [15]	Potency [16]	viability [9]	Potency [17]
3	C[C@H](CCC(=O)O)[C@H]1CCC2C3C[C@H](O)[C@@H]4C[C@H](O)CC[C@]4(C)C3CC[C@@]21C (stereo partly specified)	inconclusive: 16.6 µM [cytotoxic, partial curve, poor fit]	inactive	inactive	inactive	–	–	inconclusive: 0.264 µM [cytotoxic, partial curve, poor fit]	inactive	–	inconclusive: 1.18 µM [cytotoxic, full curve, poor fit]	active: 18.7 µM	inconclusive: 16.6 µM [cytotoxic, partial curve, poor fit]	–	inactive	–	inactive	inactive: 96.1%	inactive
4	Cc1cc(NC(=O)Nc2ccc(N(C)C)cc2)c2cc(F)cc(F)c2n1	active: 23.5 µM	inconclusive: 37.2 µM [cytotoxic, single point]	inconclusive: 14.8 µM [cytotoxic, partial curve, poor fit]	–	–	–	inconclusive: 11.8 µM [cytotoxic, full curve, poor fit]	inconclusive: 20.9 µM [cytotoxic, partial curve, poor fit]	inconclusive: 26.4 µM [cytotoxic, single point]	inactive	–	inconclusive: 33.2 µM [rising, single point]	inactive	–	inactive	active: 16.6 µM	–	inactive
